Source: ChEMBL document CHEMBL3988442, “University of Dundee, Small-Polar-MMV Screening Library” (2021).

Amino acid sequences for entries named in this document (tags omitted). Residues count along the entry.
UniProt A4I591, 1-473: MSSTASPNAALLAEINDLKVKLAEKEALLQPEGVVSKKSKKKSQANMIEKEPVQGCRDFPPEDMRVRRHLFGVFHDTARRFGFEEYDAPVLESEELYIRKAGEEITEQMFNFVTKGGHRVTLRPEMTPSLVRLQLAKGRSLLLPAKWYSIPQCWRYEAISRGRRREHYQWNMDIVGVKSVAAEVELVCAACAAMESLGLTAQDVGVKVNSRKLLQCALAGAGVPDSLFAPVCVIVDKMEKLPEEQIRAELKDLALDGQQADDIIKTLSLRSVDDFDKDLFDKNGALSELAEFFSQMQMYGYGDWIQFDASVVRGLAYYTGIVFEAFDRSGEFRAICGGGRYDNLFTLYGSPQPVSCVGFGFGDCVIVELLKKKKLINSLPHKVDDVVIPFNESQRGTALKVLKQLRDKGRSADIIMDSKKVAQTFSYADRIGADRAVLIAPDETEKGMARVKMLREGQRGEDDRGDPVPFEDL
UniProt P9WPC5, whole entry: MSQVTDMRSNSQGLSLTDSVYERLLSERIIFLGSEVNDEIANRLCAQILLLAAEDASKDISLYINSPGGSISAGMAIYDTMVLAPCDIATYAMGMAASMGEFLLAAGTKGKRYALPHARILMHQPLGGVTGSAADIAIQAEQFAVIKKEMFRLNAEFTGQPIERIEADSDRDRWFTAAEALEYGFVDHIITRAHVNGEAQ
UniProt P9WPC3, whole entry partner: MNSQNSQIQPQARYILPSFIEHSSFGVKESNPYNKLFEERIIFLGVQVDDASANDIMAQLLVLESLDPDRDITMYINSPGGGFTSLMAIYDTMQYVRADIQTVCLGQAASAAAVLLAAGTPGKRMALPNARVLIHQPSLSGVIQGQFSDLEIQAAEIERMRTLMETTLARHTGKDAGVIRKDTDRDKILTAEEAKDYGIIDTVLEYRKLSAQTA
UniProt Q4DA54, 1-478: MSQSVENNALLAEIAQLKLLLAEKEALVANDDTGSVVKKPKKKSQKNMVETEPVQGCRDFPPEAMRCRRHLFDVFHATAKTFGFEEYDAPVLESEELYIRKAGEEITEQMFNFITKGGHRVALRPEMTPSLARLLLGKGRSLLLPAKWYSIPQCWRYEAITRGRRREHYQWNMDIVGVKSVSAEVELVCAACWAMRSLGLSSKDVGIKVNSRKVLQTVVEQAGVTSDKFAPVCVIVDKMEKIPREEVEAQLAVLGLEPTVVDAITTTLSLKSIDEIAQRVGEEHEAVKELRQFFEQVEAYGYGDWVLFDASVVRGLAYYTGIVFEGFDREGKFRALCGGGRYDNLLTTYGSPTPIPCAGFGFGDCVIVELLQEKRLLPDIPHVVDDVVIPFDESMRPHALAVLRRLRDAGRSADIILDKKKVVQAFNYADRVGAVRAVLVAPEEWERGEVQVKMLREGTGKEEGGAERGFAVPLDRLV

Toxoplasma: 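Assay of Toxoplasma gondii numbers, read through their beta-galactosidase reporter with a colour substrate. Concentration: 10 µM. The record gives no direction; the compounds picked for IC50 retests had high values, so higher reads as fewer parasites. Size under these conditions: about 67,000 compounds, about 260 of them at 50% or above in at least one test.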
T. brucei: 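Whole-parasite assay of Trypanosoma brucei over 72 hours; the read-out is not stated. Concentration: 30 µM. The record gives no direction; compounds that gave an IC50 in retests scored well above the rest, so higher reads as stronger inhibition. Values scatter widely below zero; nearly all retest evidence comes from the higher of the two concentrations used. Size under these conditions: about 64,000 compounds, about 940 of them at 50% or above in at least one test.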
LiHisRS: 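Enzyme assay of histidyl-tRNA synthetase; the read-out is not stated. Target: Histidine-tRNA ligase, Leishmania infantum (UniProt A4I591). Tested at 30 µM. Direction is inferred from retests: higher values go with stronger inhibition. The assay is labelled LdHisRS but filed under L. infantum. Of about 69,000 compounds tested this way, about 410 (0.6%) reached 50% or more in at least one test.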
ClpP1P2: 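ClpP1P2, Mycobacterium tuberculosis (UniProt P9WPC5 and UniProt P9WPC3). Protease assay of ClpP1P2, read by the AMC dye that it sets free. Tested at 50 µM. Higher reads as stronger inhibition, judged from the few compounds that gave an IC50. Most other retested compounds had strongly negative values. Size under these conditions: about 69,000 compounds, about 10 of them at 50% or above in at least one test.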
TcHisRS: 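Enzyme assay of histidyl-tRNA synthetase; the read-out is not stated. Target: Histidine-tRNA ligase, Trypanosoma cruzi CL Brener (UniProt Q4DA54). Concentration: 30 µM. Direction is inferred from retests: higher values go with stronger inhibition. About 69,000 compounds were tested under these conditions; 0.045% (about 31) showed 50% or more at least once.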

Values are the deposited “Percent Effect”, in %. The record does not define 0% and 100%; most values in the screen are far below 50% and negative numbers occur (in some assays of this library far below -100). The compounds are a random part of those screened. A dash means the value is not listed here; it may have been measured.

structure,Toxoplasma,T. brucei,LiHisRS,ClpP1P2,TcHisRS
Cc1nc(CNC(=O)c2ccc3c(c2)nc(N2CCOCC2)n3C)cs1,-3.57,-14.63,16.05,-14.64,-10.27
O=C(O)C(F)(F)F.O=S(=O)(C1CC1)N1CCC2(CN(c3ccccn3)C2)C1,-11,-,-,-,-
Cc1cnccc1-c1cnn(CCNC(=O)c2ccccn2)c1C1CC1.Cl,25.65,-,-,-,-
COCc1cnc2n1CCN(S(=O)(=O)c1c(C)nn(C)c1C)C2C (configuration not stated),1.888,-78.64,-8.621,-3.208,1.266
Cc1ccc(CN2CCC3(CC2)COCCN3S(C)(=O)=O)o1.O=C(O)C(F)(F)F,17.4,-38.5,-,-,-
N#Cc1ccc(CN(CC(N)=O)C2CCCC2)c(Br)c1,-3.241,9.183,7.018,-1.678,2.521
O=C(CO[C@@H]1CC[C@H]2[C@H]1OCCN2Cc1ccccn1)N1CCCC1,-,-,17.54,10.33,7.527
O[C@@H]1CCN(c2ccc3c(Cl)ccnc3c2F)C1,7.306,-14.5,22.5,-10.89,13.16
COCC(=O)NC[C@H]1CC[C@H](c2ccnc3ncnn32)CC1,-,-,8.451,-17.4,3.077
O=C(O)c1cnc(OCC2CC2)c(Cl)c1,2.849,-22.1,1.961,-0.4562,3.704
COc1ccccc1OCCN(C)Cc1c(C2CC2)[nH]c2ncccc12,21.02,-16.2,0,-8.018,2.26
CN1CCc2c(CNC(=O)c3nccn3C)cncc2C1.Cl.Cl.Cl,14.78,-36.08,-,-,-
COC(C)(C)CNC(=O)c1cn(-c2cccc(Cl)c2F)nn1,-5.352,-13.58,5,-12.81,6.211
CC(C)c1noc(C(C)N2CCN(c3ccc(C#N)cn3)CC2)n1 (configuration not stated),13.71,-8.401,9.589,-2.907,9
O=C1CC2(CCN(c3nncs3)C2)CN1c1ccc2c(c1)OCCO2 (configuration not stated),25.47,-52.06,9.722,-3.744,3.738
CC(=O)NCCNC(=O)NCC1Cc2ccccc2O1 (configuration not stated),-7.713,-1.786,18.09,15.08,10.1
Cc1csc(NC(=O)CN2CCCC(Cn3nc(C)nc3C)C2)n1 (configuration not stated),-6.062,-,16.51,-10.66,9.412
COCCNC(=O)Cn1cc(OCc2ccc(F)cc2)c(=O)cc1C,-23.33,-23.57,20.78,5.113,-1.212
Cc1cnc(N2CCc3c(CNc4ccnc(C)n4)cncc3C2)nc1.Cl,-3.45,-30.64,-,-,-
COc1ccc(OCCN(C)C(=O)c2ccc(OC)cc2O)cc1,3.545,-51.13,13.83,0.4125,10.05
CC(C)c1nn(C)c(Cl)c1CNC1CCOc2ccccc21 (configuration not stated),-,-,21.54,1.692,3.448
CCc1ccc(C(=O)N2CCCCC2CNS(C)(=O)=O)o1 (configuration not stated),7.458,-6.627,6.218,-2.05,7.182
Cc1noc(C)c1CN1CCOC2(CCCN(c3ncccn3)C2)C1.O=C(O)C(F)(F)F (configuration not stated),15.55,6.853,-,-,-
CC(C)[C@H]1CN(c2ccncc2)C[C@@H]1NC(=O)C1(C#N)CCOCC1,5.381,-24.45,0,-14.26,3.96
O=C(O)C(F)(F)F.[H][C@@]12CCN(Cc3ccc(CC)o3)C[C@@]1([H])O[C@@H](c1nnc(C)[nH]1)C2,15.23,25.67,-,-,-
COc1cc(S(=O)(=O)N2CCc3ccc(Cl)cc32)cc(C(=O)O)c1OC,0.7549,-6.226,-6.897,-13.25,-2.825
CC(C)(C)OC(=O)NC1(c2noc(-c3ccoc3)n2)CCC1,-0.9604,3.732,8.772,-2.781,10.92
Cc1nc(N(C)C2CCCCC2)ncc1C(C)NC(=O)c1cccnc1 (configuration not stated),8.505,-134.2,22.37,-6.466,6.522
COCc1ncc(CN2CC(Oc3c(C)cccc3C)C2)cn1,1.644,10.01,14.52,-4.856,8.442
COc1cccc(C(=O)N(C)C(C)c2c(C)n[nH]c2C)c1OC (configuration not stated),5.059,-6.379,21.31,-5.994,3.03
Nc1ncc(-c2ccc(Cl)cc2)c(C2CCCNC2)n1 (configuration not stated),13.44,28.09,17.45,-60.07,2
O=C(O)C(F)(F)F.O=C(O)C(F)(F)F.O=C1NC2(CCN(Cc3cccs3)CC2)CC1c1ccncc1 (configuration not stated),-0.4162,12.92,-,-,-
CN(C)C(=O)NCc1ncn2c1CN(Cc1cccs1)CCC2.O=C(O)C(F)(F)F.O=C(O)C(F)(F)F,-20.81,-,-,-,-
O=C(CC1CCCC1)N1CCN(c2ccc(-n3cncn3)nn2)CC1,2.059,11.42,1.739,-2.777,1.031
Cc1cc(-c2nccs2)nc(C2CCN(Cc3ccccn3)CC2)n1,-8.323,-19.63,-8.571,-20.42,4.981
O=C(O)C1(Cc2cc(-c3ccc(F)cc3)no2)CCOCC1,11.47,-19.17,10.31,20.45,5.556
O=C1c2ncccc2C(CCO)N1Cc1ccccc1 (configuration not stated),-0.07962,36.43,14.43,-1.743,2.312
O=C(CC1CC2(CCN(CC3CC3)CC2)Oc2ccccc21)NC1CC1 (configuration not stated),-,-,13.46,-2.619,10.68

Once more, the final 2:

| structure | Toxoplasma | T. brucei | LiHisRS | ClpP1P2 | TcHisRS |
|---|---|---|---|---|---|
| `O=C1c2ncccc2C(CCO)N1Cc1ccccc1` (configuration not stated) | -0.07962 | 36.43 | 14.43 | -1.743 | 2.312 |
| `O=C(CC1CC2(CCN(CC3CC3)CC2)Oc2ccccc21)NC1CC1` (configuration not stated) | - | - | 13.46 | -2.619 | 10.68 |